These results are taken from publication PMC5706886.

The chains behind the UniProt entries cited, without tags or fusion partners.
UniProt Q9NPI1: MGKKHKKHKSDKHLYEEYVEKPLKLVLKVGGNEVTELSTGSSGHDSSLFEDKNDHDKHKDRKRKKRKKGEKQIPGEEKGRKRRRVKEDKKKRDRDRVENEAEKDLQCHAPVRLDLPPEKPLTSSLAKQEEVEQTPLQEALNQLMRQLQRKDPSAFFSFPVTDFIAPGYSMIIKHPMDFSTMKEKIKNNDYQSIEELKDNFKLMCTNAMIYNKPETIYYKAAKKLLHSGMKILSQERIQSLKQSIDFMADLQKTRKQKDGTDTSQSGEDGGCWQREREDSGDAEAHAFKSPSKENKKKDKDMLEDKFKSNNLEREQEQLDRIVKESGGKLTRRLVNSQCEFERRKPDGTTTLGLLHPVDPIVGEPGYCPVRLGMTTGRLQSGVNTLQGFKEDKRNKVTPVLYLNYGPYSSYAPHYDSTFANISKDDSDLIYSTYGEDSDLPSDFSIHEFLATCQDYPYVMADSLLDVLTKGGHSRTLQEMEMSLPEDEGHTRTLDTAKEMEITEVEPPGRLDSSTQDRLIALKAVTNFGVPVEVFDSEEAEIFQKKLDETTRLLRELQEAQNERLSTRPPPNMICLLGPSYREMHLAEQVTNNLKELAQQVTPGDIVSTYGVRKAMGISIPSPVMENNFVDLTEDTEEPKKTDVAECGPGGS

In this assay the target is T1, LDB2 (human (endogenous in HCC sample cells)) (UniProt O43679).
T1 sequence: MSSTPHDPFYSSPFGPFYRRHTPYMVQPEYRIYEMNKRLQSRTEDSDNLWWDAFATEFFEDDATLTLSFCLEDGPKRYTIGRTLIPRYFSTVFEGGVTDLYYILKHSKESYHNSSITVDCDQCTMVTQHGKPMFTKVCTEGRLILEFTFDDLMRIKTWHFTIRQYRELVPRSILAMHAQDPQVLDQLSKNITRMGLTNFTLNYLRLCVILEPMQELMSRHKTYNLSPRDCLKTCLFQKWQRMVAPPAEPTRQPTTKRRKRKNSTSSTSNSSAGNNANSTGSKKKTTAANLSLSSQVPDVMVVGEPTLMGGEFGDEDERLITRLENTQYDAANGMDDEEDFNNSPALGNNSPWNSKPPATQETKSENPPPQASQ
Kind of assay: affinity purification with mass spectrometry; HCC sample cells lysed with RIPA lysis buffer; anti-LDB2 or IgG control at 4 °C overnight; Protein A/G beads 2 h at 4 °C; SDS-PAGE, silver staining; differential bands cut for MS (LTQ Orbitrap XL).

These are yes or no findings as the source states them, for the method shown. Binding seen in cells or lysates may run through a third protein. A yes stands for co-enrichment or nearness to the bait. Other partners may have been found.

On to “Bromodomain containing 7 (BRD7) (from UniProt Q9NPI1 1-651)”, for which the binding entry is “binds”.
